These are yes or no findings as the source states them, for the method shown. In cells and extracts the contact can be indirect. Some binding calls cover weakened binding; strength is not graded here. Sequences can lack the tags named with a protein.
T1: GST-fused P5 (GLYYF) (human)
T1 sequence: GLYYF

T2: GST-fused P10 (NIPGL) (human)
T2 sequence: NIPGL

T3: GST-fused mutant peptide GLYAF (human)
T3 sequence: GLYAF

T4: GST-fused mutant peptide GLYDF (human)
T4 sequence: GLYDF


Columns and labels:
Test in all cases: pull-down; purified GST-fused peptide on glutathione-Sepharose beads, mixed with lysate of HEK293T cells expressing Flag-AdipoR1, 4°C overnight; washed with PBST, eluted with 20 mM glutathione; Western blot with Flag and GST antibodies; only the target purified
[1] = biological target: T1, GST-fused P5 (GLYYF) (human)
[2] = biological target: T2, GST-fused P10 (NIPGL) (human)
[3] = biological target: T3, GST-fused mutant peptide GLYAF (human)
[4] = biological target: T4, GST-fused mutant peptide GLYDF (human)

binding [1] | Binder | further results
binds | Flag-fused full-length AdipoR1 (residues 1-375) (receptor, UniProt Q96A54 1-375) MSSHKGSVVAQGNGAPASNREADTVELAELGPLLEEKGKRVIANPPKAEEEQTCPVPQEEEEEVRVLTLPLQAHHAMEKMEEFVYKVWEGRWRVIPYDVLPDWLKDNDYLLHGHRPPMPSFRACFKSIFRIHTETGNIWTHLLGFVLFLFLGILTMLRPNMYFMAPLQEKVVFGMFFLGAVLCLSFSWLFHTVYCHSEKVSRTFSKLDYSGIALLIMGSFVPWLYYSFYCSPQPRLIYLSIVCVLGISAIIVAQWDRFATPKHRQTRAGVFLGLGLSGVVPTMHFTIAEGFVKATTVGQMGWFFLMAVMYITGAGLYAARIPERFFPGKFDIWFQSHQIFHVLVVAAAFVHFYGVSNLQEFRYGLEGGCTDDTLL | binding [2]: no binding
binds | Flag-fused AdipoR1 (residues 89-375) R362A (domain or fragment, UniProt Q96A54 89-375) EGRWRVIPYDVLPDWLKDNDYLLHGHRPPMPSFRACFKSIFRIHTETGNIWTHLLGFVLFLFLGILTMLRPNMYFMAPLQEKVVFGMFFLGAVLCLSFSWLFHTVYCHSEKVSRTFSKLDYSGIALLIMGSFVPWLYYSFYCSPQPRLIYLSIVCVLGISAIIVAQWDRFATPKHRQTRAGVFLGLGLSGVVPTMHFTIAEGFVKATTVGQMGWFFLMAVMYITGAGLYAARIPERFFPGKFDIWFQSHQIFHVLVVAAAFVHFYGVSNLQEFAYGLEGGCTDDTLL | 
binds | Flag-fused AdipoR1 (residues 89-375) F285K (domain or fragment, UniProt Q96A54 89-375) EGRWRVIPYDVLPDWLKDNDYLLHGHRPPMPSFRACFKSIFRIHTETGNIWTHLLGFVLFLFLGILTMLRPNMYFMAPLQEKVVFGMFFLGAVLCLSFSWLFHTVYCHSEKVSRTFSKLDYSGIALLIMGSFVPWLYYSFYCSPQPRLIYLSIVCVLGISAIIVAQWDRFATPKHRQTRAGVFLGLGLSGVVPTMHKTIAEGFVKATTVGQMGWFFLMAVMYITGAGLYAARIPERFFPGKFDIWFQSHQIFHVLVVAAAFVHFYGVSNLQEFRYGLEGGCTDDTLL | 
binds | Flag-fused AdipoR1 (residues 89-375) R362E (domain or fragment, UniProt Q96A54 89-375) EGRWRVIPYDVLPDWLKDNDYLLHGHRPPMPSFRACFKSIFRIHTETGNIWTHLLGFVLFLFLGILTMLRPNMYFMAPLQEKVVFGMFFLGAVLCLSFSWLFHTVYCHSEKVSRTFSKLDYSGIALLIMGSFVPWLYYSFYCSPQPRLIYLSIVCVLGISAIIVAQWDRFATPKHRQTRAGVFLGLGLSGVVPTMHFTIAEGFVKATTVGQMGWFFLMAVMYITGAGLYAARIPERFFPGKFDIWFQSHQIFHVLVVAAAFVHFYGVSNLQEFEYGLEGGCTDDTLL | 

Second part, the binder before the results:

Binder | binding [1] | further results
Flag-fused AdipoR1 (residues 89-375) F361A (domain or fragment, UniProt Q96A54 89-375) EGRWRVIPYDVLPDWLKDNDYLLHGHRPPMPSFRACFKSIFRIHTETGNIWTHLLGFVLFLFLGILTMLRPNMYFMAPLQEKVVFGMFFLGAVLCLSFSWLFHTVYCHSEKVSRTFSKLDYSGIALLIMGSFVPWLYYSFYCSPQPRLIYLSIVCVLGISAIIVAQWDRFATPKHRQTRAGVFLGLGLSGVVPTMHFTIAEGFVKATTVGQMGWFFLMAVMYITGAGLYAARIPERFFPGKFDIWFQSHQIFHVLVVAAAFVHFYGVSNLQEARYGLEGGCTDDTLL | binds | 
Flag-fused AdipoR1 (residues 89-375) F285Y (domain or fragment, UniProt Q96A54 89-375) EGRWRVIPYDVLPDWLKDNDYLLHGHRPPMPSFRACFKSIFRIHTETGNIWTHLLGFVLFLFLGILTMLRPNMYFMAPLQEKVVFGMFFLGAVLCLSFSWLFHTVYCHSEKVSRTFSKLDYSGIALLIMGSFVPWLYYSFYCSPQPRLIYLSIVCVLGISAIIVAQWDRFATPKHRQTRAGVFLGLGLSGVVPTMHYTIAEGFVKATTVGQMGWFFLMAVMYITGAGLYAARIPERFFPGKFDIWFQSHQIFHVLVVAAAFVHFYGVSNLQEFRYGLEGGCTDDTLL | binds | 
Flag-fused AdipoR1 (residues 89-375) E289R (domain or fragment, UniProt Q96A54 89-375) EGRWRVIPYDVLPDWLKDNDYLLHGHRPPMPSFRACFKSIFRIHTETGNIWTHLLGFVLFLFLGILTMLRPNMYFMAPLQEKVVFGMFFLGAVLCLSFSWLFHTVYCHSEKVSRTFSKLDYSGIALLIMGSFVPWLYYSFYCSPQPRLIYLSIVCVLGISAIIVAQWDRFATPKHRQTRAGVFLGLGLSGVVPTMHFTIARGFVKATTVGQMGWFFLMAVMYITGAGLYAARIPERFFPGKFDIWFQSHQIFHVLVVAAAFVHFYGVSNLQEFRYGLEGGCTDDTLL | binds | 
Flag-fused AdipoR1 (residues 89-375) E366R (domain or fragment, UniProt Q96A54 89-375) EGRWRVIPYDVLPDWLKDNDYLLHGHRPPMPSFRACFKSIFRIHTETGNIWTHLLGFVLFLFLGILTMLRPNMYFMAPLQEKVVFGMFFLGAVLCLSFSWLFHTVYCHSEKVSRTFSKLDYSGIALLIMGSFVPWLYYSFYCSPQPRLIYLSIVCVLGISAIIVAQWDRFATPKHRQTRAGVFLGLGLSGVVPTMHFTIAEGFVKATTVGQMGWFFLMAVMYITGAGLYAARIPERFFPGKFDIWFQSHQIFHVLVVAAAFVHFYGVSNLQEFRYGLRGGCTDDTLL | binds | 
Flag-fused AdipoR1 (residues 89-375) F285A/F361A (domain or fragment, UniProt Q96A54 89-375) EGRWRVIPYDVLPDWLKDNDYLLHGHRPPMPSFRACFKSIFRIHTETGNIWTHLLGFVLFLFLGILTMLRPNMYFMAPLQEKVVFGMFFLGAVLCLSFSWLFHTVYCHSEKVSRTFSKLDYSGIALLIMGSFVPWLYYSFYCSPQPRLIYLSIVCVLGISAIIVAQWDRFATPKHRQTRAGVFLGLGLSGVVPTMHATIAEGFVKATTVGQMGWFFLMAVMYITGAGLYAARIPERFFPGKFDIWFQSHQIFHVLVVAAAFVHFYGVSNLQEARYGLEGGCTDDTLL | binds | 
Flag-fused N-terminal-truncated AdipoR1 (residues 89-375) (domain or fragment, UniProt Q96A54 89-375) EGRWRVIPYDVLPDWLKDNDYLLHGHRPPMPSFRACFKSIFRIHTETGNIWTHLLGFVLFLFLGILTMLRPNMYFMAPLQEKVVFGMFFLGAVLCLSFSWLFHTVYCHSEKVSRTFSKLDYSGIALLIMGSFVPWLYYSFYCSPQPRLIYLSIVCVLGISAIIVAQWDRFATPKHRQTRAGVFLGLGLSGVVPTMHFTIAEGFVKATTVGQMGWFFLMAVMYITGAGLYAARIPERFFPGKFDIWFQSHQIFHVLVVAAAFVHFYGVSNLQEFRYGLEGGCTDDTLL | binds | binding [3]: binds; binding [4]: binds
Flag-fused AdipoR1 (residues 89-375) Y229A (domain or fragment, UniProt Q96A54 89-375) EGRWRVIPYDVLPDWLKDNDYLLHGHRPPMPSFRACFKSIFRIHTETGNIWTHLLGFVLFLFLGILTMLRPNMYFMAPLQEKVVFGMFFLGAVLCLSFSWLFHTVYCHSEKVSRTFSKLDYSGIALLIMGSFVPWLYYSFACSPQPRLIYLSIVCVLGISAIIVAQWDRFATPKHRQTRAGVFLGLGLSGVVPTMHFTIAEGFVKATTVGQMGWFFLMAVMYITGAGLYAARIPERFFPGKFDIWFQSHQIFHVLVVAAAFVHFYGVSNLQEFRYGLEGGCTDDTLL | binds | 
